PubChem BioAssay AID1259282 – Sanger Institute | 2017

Test: 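siRNA screen across the kinome seeking drug combinations lethal to colorectal cancer cells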 (primary screen)
System: DIFI human colorectal cancer cell line
Reagent: siRNA pool against human genes
Treatment: anchor drug at a mild dose (BYL719 1 µM, cetuximab 5 µg/ml, trametinib 10 nM) or DMSO vehicle; exposure time not given
Read-out: 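Robust z-score and replicate-mean viability versus non-targeting pool without drug, plus a synergy score for each low-dose anchor drug (BYL719, cetuximab, trametinib)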
Scale: robust z-score, knock-down alone: higher = more viable cells than typical knock-down; viability, knock-down alone: higher = more viable cells
Units: viability, knock-down alone in fraction of control
Active means: 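a knock-down is called essential if its DMSO robust z-score is under -3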
Calls: active = essential (knock-down alone, z below -3); inactive = not essential
Here is one part, drawn at random, of 794 reagents tested. In the full data, 11 (1.4%) were called active. 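Calls flag knock-downs that lower viability without drug; drug synergy appears only in the synergy scores; exposure time not stated.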 Viability is capped at 1. Further read-outs or replicates are left out here. Not given: the amount of reagent, the time to read-out.

The first 3 entries, to show the layout:
EPHA1 | robust z-score, knock-down alone = 0.681; viability, knock-down alone = 0.995; Outcome = inactive
STRADB | robust z-score, knock-down alone = 0.715; viability, knock-down alone = 1; Outcome = inactive
PSKH2 | robust z-score, knock-down alone = -0.151; viability, knock-down alone = 0.874; Outcome = inactive

The listing, repeating the preview:
EPHA1 | robust z-score, knock-down alone = 0.681; viability, knock-down alone = 0.995; Outcome = inactive
STRADB | robust z-score, knock-down alone = 0.715; viability, knock-down alone = 1; Outcome = inactive
PSKH2 | robust z-score, knock-down alone = -0.151; viability, knock-down alone = 0.874; Outcome = inactive
GK | robust z-score, knock-down alone = 0.715; viability, knock-down alone = 1; Outcome = inactive
PDGFRL | robust z-score, knock-down alone = 0.715; viability, knock-down alone = 1; Outcome = inactive
MYO3A | robust z-score, knock-down alone = -1.34; viability, knock-down alone = 0.702; Outcome = inactive
TRPM7 | robust z-score, knock-down alone = -1.2; viability, knock-down alone = 0.722; Outcome = inactive
TRIB2 | robust z-score, knock-down alone = -4.05; viability, knock-down alone = 0.308; Outcome = active
DYRK4 | robust z-score, knock-down alone = 0.715; viability, knock-down alone = 1; Outcome = inactive
STK11 | robust z-score, knock-down alone = -0.866; viability, knock-down alone = 0.77; Outcome = inactive
PRKCQ | robust z-score, knock-down alone = -0.196; viability, knock-down alone = 0.868; Outcome = inactive
EPHA10 | robust z-score, knock-down alone = -1.84; viability, knock-down alone = 0.629; Outcome = inactive
CTCF | robust z-score, knock-down alone = 0.223; viability, knock-down alone = 0.929; Outcome = inactive
TP53BP1 | robust z-score, knock-down alone = 0.147; viability, knock-down alone = 0.918; Outcome = inactive
TSSK2 | robust z-score, knock-down alone = 0.518; viability, knock-down alone = 0.971; Outcome = inactive
RNASEL | robust z-score, knock-down alone = 0.447; viability, knock-down alone = 0.961; Outcome = inactive
AMER1 | robust z-score, knock-down alone = -1.32; viability, knock-down alone = 0.705; Outcome = inactive
MERTK | robust z-score, knock-down alone = -0.246; viability, knock-down alone = 0.86; Outcome = inactive
BRD3 | robust z-score, knock-down alone = 0.715; viability, knock-down alone = 1; Outcome = inactive
MED24 | robust z-score, knock-down alone = 0.715; viability, knock-down alone = 1; Outcome = inactive
MET | robust z-score, knock-down alone = -1.4; viability, knock-down alone = 0.693; Outcome = inactive
TSSK1B | robust z-score, knock-down alone = -0.249; viability, knock-down alone = 0.86; Outcome = inactive
CAMK2B | robust z-score, knock-down alone = -0.649; viability, knock-down alone = 0.802; Outcome = inactive
SOX9 | robust z-score, knock-down alone = 0.119; viability, knock-down alone = 0.913; Outcome = inactive
SRPK1 | robust z-score, knock-down alone = 0.715; viability, knock-down alone = 1; Outcome = inactive
HUNK | robust z-score, knock-down alone = -2.37; viability, knock-down alone = 0.552; Outcome = inactive
DLG3 | robust z-score, knock-down alone = 0.715; viability, knock-down alone = 1; Outcome = inactive
TNIK | robust z-score, knock-down alone = 0.715; viability, knock-down alone = 1; Outcome = inactive
CHKA | robust z-score, knock-down alone = -0.203; viability, knock-down alone = 0.867; Outcome = inactive
CDKL3 | robust z-score, knock-down alone = 0.715; viability, knock-down alone = 1; Outcome = inactive
TNK2 | robust z-score, knock-down alone = 0.595; viability, knock-down alone = 0.983; Outcome = inactive
MPP1 | robust z-score, knock-down alone = 0.715; viability, knock-down alone = 1; Outcome = inactive
PDPK1 | robust z-score, knock-down alone = 0.715; viability, knock-down alone = 1; Outcome = inactive
ULK4 | robust z-score, knock-down alone = 0.0618; viability, knock-down alone = 0.905; Outcome = inactive
SMAD4 | robust z-score, knock-down alone = -1; viability, knock-down alone = 0.751; Outcome = inactive
STK31 | robust z-score, knock-down alone = 0.224; viability, knock-down alone = 0.929; Outcome = inactive
